Measured values taken from patent publication US20220169677A1 (INSERM INSTITUT NATIONAL DE LA SANTE ET DE LA RECHERCHE …, published 2022).
Results are given in words; binding and its absence hold for the method and conditions named. Some entries that bind do so weakly or less than the wild type. Blank lines part the entries; values can stand above or below the binder they belong to.

Biological target: T1, recombinant human NRP-1 (human, UniProt O14786-2 22-644, limits assumed)
T1 construct: Coated on a 96-well plate at 200 ng/well; GenBank AAC51759.1 is printed only as the preferred definition of NRP-1; also called Neuropilin-1
T1 sequence (looked up): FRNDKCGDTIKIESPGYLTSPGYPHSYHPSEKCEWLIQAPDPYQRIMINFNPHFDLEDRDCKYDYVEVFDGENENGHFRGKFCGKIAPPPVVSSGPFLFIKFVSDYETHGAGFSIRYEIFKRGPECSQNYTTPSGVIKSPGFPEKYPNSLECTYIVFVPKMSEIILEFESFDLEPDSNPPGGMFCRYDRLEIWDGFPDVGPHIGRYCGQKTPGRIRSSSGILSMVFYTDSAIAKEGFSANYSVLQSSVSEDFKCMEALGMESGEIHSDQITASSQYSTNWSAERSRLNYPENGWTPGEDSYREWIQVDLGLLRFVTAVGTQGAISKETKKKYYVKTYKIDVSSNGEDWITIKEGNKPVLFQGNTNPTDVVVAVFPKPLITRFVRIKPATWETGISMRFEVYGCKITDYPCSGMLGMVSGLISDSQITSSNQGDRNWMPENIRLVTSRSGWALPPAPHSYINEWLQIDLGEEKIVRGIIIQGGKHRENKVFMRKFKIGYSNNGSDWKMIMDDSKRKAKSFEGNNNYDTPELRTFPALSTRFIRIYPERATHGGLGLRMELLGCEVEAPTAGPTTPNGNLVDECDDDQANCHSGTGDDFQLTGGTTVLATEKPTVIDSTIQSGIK
Test: chemiluminescence competition assay on coated NRP-1

binding: binds
B1: H2N-Cys-Lys-Pro-Arg-Arg-OH (peptide)
peptide: H-CKPRR-OH
notes: KPRR (peptide derived from the VEGF-A165 C-terminus) with an added N-terminal Cys; also called CKPRR

binding: binds
B2: H2N-Cys-Thr-Lys-Pro-Arg-OH (peptide)
peptide: H-CTKPR-OH
notes: TKPR (tuftsin) with an added N-terminal Cys; also called CTKPR

binding: binds
B3: H2N-Cys-Leu-Pro-Pro-Arg-OH (peptide)
peptide: H-CLPPR-OH
notes: LPPR (active part of A7R) with an added N-terminal Cys; also called CLPPR
